# In all, about 410,000 compounds went through this assay and about 18,000 (4.4%) were called active. Inconclusive results, whose numbers are uncertain, are shown with a selection of clear calls. Rule as the data show it: active = activity change below about -60%; inconclusive = no clear call, values can overlap the other calls; inactive = above about -39%.
# Assay: qHTS Assay for inhibitors of the human cytomegalovirus (HCMV)
# Settings: HFF cells, HCMV-luciferase reporter, 72 h; at 57.5 µM; stronger effect = lower value
# Method in brief: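 Two-dose cell screen: HFF monolayers treated with compounds and infected with luciferase-expressing HCMV at 1 PFU/cell, 72 h at 37C, then lysed for luciferase measurement.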
# % is scaled to controls: 0 for no effect and ±100 for the full control effect.
row,Compound,"activity change, negative = inhibition"
1,CCCCCC(=O)Nc1ncc2c(n1)CC(c1cccs1)CC2=O (stereo not given),inconclusive: -56.8%
2,CCOc1ncccc1C(=O)Nc1ccc(F)cc1,inconclusive: -41.9%
3,CCn1c(SC)nnc1C1CCCN(CC(=O)Nc2ccccc2N2CCOCC2)C1 (stereo not given),inconclusive: -44%
4,O=C(NCc1ccccc1)c1cccc(NS(=O)(=O)c2cccc3cccnc23)c1,inconclusive: -56.3%
5,COCCn1c(-c2ccc(OC)cc2)c(-c2ccc(OC)cc2)oc1=O,inconclusive: -54.8%
6,C/C(=N\N(c1ccccc1)c1ccccc1)c1ccco1,inconclusive: -50%
7,COC(=O)[C@H](Cc1c[nH]c2ccccc12)NC(=O)NCc1ccccc1,inconclusive: -49.3%
8,CCCCN1CC(c2nc3ccccc3n2CCCCOc2ccc(C)c(C)c2)CC1=O (stereo not given),inactive: -0.206%
9,Cc1nc2ccccc2nc1OCC(=O)Nc1cc(C(F)(F)F)ccc1N1CCOCC1,inactive: 38.8%
10,O=C(C1CCCN(S(=O)(=O)c2cccc3cccnc23)C1)N1CCN(c2ccccc2F)CC1 (stereo not given),inactive: -12.3%
11,COc1ccc(/C=C/C(=O)NC(=S)Nc2ccc(S(N)(=O)=O)cc2)cc1,inactive: 0%
12,COc1ccc(-c2cn(-c3ccc(C)c(C)c3)c(=S)[nH]2)cc1OC,inconclusive: -49.1%
13,Cc1cccc(OCC(=O)NCC(=O)N/N=C/c2cccs2)c1,inconclusive: -44.7%
14,COc1cccc(N2CC(C(=O)Nc3nnc(SCCC4OCCO4)s3)CC2=O)c1 (stereo not given),inactive: 55.6%
15,Cc1onc(-c2c(F)cccc2Cl)c1C(=O)Nc1nccs1,inconclusive: -46.1%
16,Cn1c(=O)c2c(nc(NCC3CCCC(CN)C3)n2Cc2ccc(Cl)cc2Cl)n(C)c1=O (stereo not given),active: -99.2%
17,COc1ccc(-n2c(=O)c3c4c(sc3n(CC(=O)Nc3cc(C)[nH]n3)c2=O)CCCC4)c(OC)c1,inconclusive: -43.4%
18,CC(=O)c1nc2ccccc2n1S(=O)(=O)c1ccc(C)cc1,inactive: -9.1%
19,Cc1ccc(Cl)cc1N1CCN(C(=O)c2cc3c(=O)[nH]c4ccccc4c3n2C)CC1,active: -94.9%
20,CCn1c2ccccc2c2cc(CN3CCN(Cc4cc(OC)ccc4O)CC3)ccc21,inactive: 14.6%
21,O=c1[nH][nH]c(-c2ccccc2O)c1C(C[N+](=O)[O-])c1ccc(Br)cc1 (stereo not given),inconclusive: -47.3%
22,COc1cccc(NC(=O)CN(C)C(=O)c2c(-c3ccccc3)noc2C)c1,inconclusive: -56.6%

# Reprinted from above for reference:
row,Compound,"activity change, negative = inhibition"
1,CCCCCC(=O)Nc1ncc2c(n1)CC(c1cccs1)CC2=O (stereo not given),inconclusive: -56.8%
2,CCOc1ncccc1C(=O)Nc1ccc(F)cc1,inconclusive: -41.9%
3,CCn1c(SC)nnc1C1CCCN(CC(=O)Nc2ccccc2N2CCOCC2)C1 (stereo not given),inconclusive: -44%
4,O=C(NCc1ccccc1)c1cccc(NS(=O)(=O)c2cccc3cccnc23)c1,inconclusive: -56.3%
5,COCCn1c(-c2ccc(OC)cc2)c(-c2ccc(OC)cc2)oc1=O,inconclusive: -54.8%

# Following part.

row,Compound,"activity change, negative = inhibition"
1,N#CC1=C(N)NC(=S)C(C(N)=O)C1c1ccc(Cl)cc1Cl (stereo not given),inconclusive: -59.4%
2,CN(Cc1ccccc1)Cc1nc2c(c(=O)n(C)c(=O)n2C)n1CCCc1ccccc1,inactive: -2.32%
3,COc1ccc(CCNC(=O)CSc2nnc(Cc3csc(N)n3)n2C)cc1OC,inconclusive: -48.4%
4,COc1ccccc1CN1C(=O)CN(C2CCCCCC2)C(=O)C1c1ccc(C)cc1 (stereo not given),inconclusive: -48.5%
5,CC(C)CC(=O)c1c[nH]c(C(=O)NCc2ccc(F)cc2)c1,inconclusive: -43.7%
6,C=CCn1c(COc2ccc(Cl)cc2)nnc1SCc1ccc(C#N)cc1,inactive: -39%
7,O=c1c2ccccc2sn1-c1ccc(Cl)cc1Cl,active: -94.5%
8,CC(C)OCCCN(CC(O)c1ccccc1)CC(O)c1ccccc1 (stereo not given),inconclusive: -48.4%
9,[O-][N+](=Cc1c(Cl)cccc1Cl)CC1(O)CCCCC1,inactive: -14.9%
10,COc1ccc(N=C2NN=C(c3c(C)[nH]c4ccccc34)CS2)cc1,inconclusive: -48.6%
11,S=C(Nc1ccc(Cl)cc1)c1sc(N2CCCCC2)nc1N1CCOCC1,inconclusive: -51.3%
12,Cc1ccc(S(=O)(=O)N2CC3(C)CN(S(=O)(=O)c4ccc(C)cc4)CC(C)(C2)C3)cc1,inactive: -19.4%
13,COc1ccc(CNC(=O)/C=C/c2ccc(S(=O)(=O)NCc3ccco3)cc2)cc1OC,inconclusive: -46.5%
14,CC(=O)Oc1ccc(OC(C)=O)c2c1CC(C)=C(C)C2,inconclusive: -50.8%
15,CC(=O)Cn1c(CN2CCCCC2)nc2ccccc2c1=O,inactive: 8.18%
16,CCN(C1CCCCC1)S(=O)(=O)c1ccc(S(=O)(=O)NCc2ccncc2)cc1,inconclusive: -54.9%
17,NC1=NC2(CCCCC2)N(c2ccc(F)cc2F)C(N)=N1,inconclusive: -50.3%
18,COc1ccc(OC)c(Nc2nc(NCc3ccco3)c3ccccc3n2)c1,inconclusive: -52.7%
19,COc1ccc(S(=O)(=O)N(CCCN2CCCC2=O)Cc2cc3c(C)ccc(C)c3[nH]c2=O)cc1,inconclusive: -56.5%
20,CCOc1ccccc1NC(=O)c1nc2nc(C)cc(C(F)F)n2n1,inconclusive: -42%
21,Cn1c(=O)c2c(nc3n2CCS3)n(C)c1=O,inconclusive: -44.1%
22,COc1cccc(CN2CCNCC2)c1OC,inactive: -4.76%

row,Compound,"activity change, negative = inhibition"
1,O=C(CC1C(=O)NCCN1Cc1ccc(-c2ccccc2)cc1)NCCCn1ccnc1 (stereo not given),inconclusive: -40.6%
2,Cc1ccccc1C(C(=O)NC1CCCC1)N(C(=O)Cc1cccs1)c1ccc2c(c1)OCCO2 (stereo not given),inactive: -36.3%
3,COc1ccc(S(=O)(=O)Nc2ccccc2OC)cc1NC(=O)c1cc2ccccc2oc1=O,inactive: -17.5%
4,CC(=O)c1cccc(NC(=S)Nc2ccn(Cc3cccc4ccccc34)n2)c1,inconclusive: -48.6%
5,O=C(Nc1ccc2nc(-c3cccs3)[nH]c2c1)c1cccs1,inconclusive: -48.1%
6,CC(C)=CCN1CCN(Cc2nc(C(C)C)cs2)CC1CCO (stereo not given),inconclusive: -51.9%
7,CCCc1ccc(C(=O)NNc2cc(Cl)ccc2Cl)cc1,inconclusive: -58.3%
8,COc1ccccc1CNC(=O)C1CCCN(S(=O)(=O)c2ccc3c(c2)CC(C)N3C(C)=O)C1 (stereo not given),inconclusive: -43.9%
9,O=S1(=O)N[C@@H](CC2=CCCCC2)C2CCCCC2O1 (stereo not given in full),inactive: -13.1%
10,CC(C)CN(C(=O)CSc1nn(-c2ccc(Cl)cc2)c(=S)s1)C1CCS(=O)(=O)C1 (stereo not given),inactive: 17.9%
11,CC1(Oc2cccc(C#N)c2)CCN(Cc2ccccc2OC(F)F)C1 (stereo not given),inconclusive: -58.1%
12,Cc1ccc2[nH]cc(CCNC(=O)C3CCCO3)c2c1 (stereo not given),inconclusive: -43%
13,CSc1ccc(CN2CCC2(C)C(=O)NCc2cccs2)cc1 (stereo not given),inconclusive: -43.3%
14,CCOC(=O)N1CCN(CC(=O)N2c3ccccc3CCc3ccccc32)CC1,inconclusive: -40.3%
15,O=C(NCc1ccccc1)c1c(Cl)nc(Cl)c(Cl)c1Cl,active: -83.5%
16,Cc1ccc(O)c(C(=O)c2cc(C#N)c(=O)n(Cc3ccccc3)c2)c1,inconclusive: -55.3%
17,Cc1ccccc1NC(=O)c1c(C)nn(-c2ccccc2)c1Cl,inconclusive: -44.8%
18,CCCN1Cc2cccc(C(=O)Nc3ccc(-c4nc5ccccc5[nH]4)cc3)c2C1=O,inconclusive: -48.6%
19,CC12CCC(=O)C=C1CCC1C2CCC2(C)C(O)(C(=O)CO)CCC12O (stereo not given),active: -65.3%
20,O=[N+]([O-])c1cc(-n2cnnn2)ccc1N1CCC(Cc2ccccc2)CC1,active: -103%
21,CCOC(=O)c1sc(NC(=O)c2ccc(S(=O)(=O)N3CCOCC3)cc2)cc1C,inactive: -19.5%
22,CCOC(=O)N1CCc2c(sc3c2c(=O)n(-c2ccc(CC)cc2)c(=O)n3CC(=O)Nc2ccc(C)cc2)C1,inconclusive: -42.1%

row,Compound,"activity change, negative = inhibition"
1,CCn1c(SCC(=O)N/N=C/C=C/c2ccco2)nnc1-c1ccccc1,inconclusive: -52.1%
2,COC(=O)[C@H](Cc1ccc(O)cc1)NC(=O)Cn1cnc2c(NCc3ccccc3)ncnc21,inactive: -8.8%
3,C=CCn1c(C)c(C(C)=O)c(N2CCN(C(c3ccccc3)c3ccccc3)CC2)nc1=S,inconclusive: -52.6%
4,O=C(N[C@@H](CCC/[N+]([O-])=C/c1ccccc1)C(=O)O)OCc1ccccc1,inactive: -15.5%
5,CCOc1ccc2nc(N=NC3=C(O)CC(C)(C)CC3=O)sc2c1,inconclusive: -40.3%
6,COc1ccc(-n2cnnc2SCC(=O)N(C)c2ccccc2)cc1,inconclusive: -49.6%
7,CCOCc1nnc(NC(=O)c2cccc(OC)c2)s1,inactive: 90.2%
8,COc1ccc(Cl)cc1-c1nc(SCC(=O)NCC2CCCO2)n[nH]1 (stereo not given),inconclusive: -40.8%
9,COc1ccc(CCNC(=O)c2ccc3c(c2)N(Cc2cccc(Cl)c2)C(=O)CS3)cc1OC,active: -61.1%
10,Cn1c(=O)n(CC(=O)N2CCN(c3nnc(-c4ccccc4)c4ccccc34)CC2)c2ccccc21,inconclusive: -56.4%
11,O=C(CSc1nnc(-c2ccc3c(c2)OCO3)o1)Nc1ncc(Cl)cc1Cl,active: -60.9%
12,CCOc1ccc(C(c2c(O)cc(C)n(CCOC)c2=O)N2CCC(C)CC2)cc1 (stereo not given),inactive: 11.9%
13,COc1ccc(Cl)cc1NC(=O)CN(c1cccc(C)c1C)S(=O)(=O)c1ccccc1,active: -62.4%
14,CCC1CCCCN1S(=O)(=O)c1ccc(NC(=O)C2CC(=O)N(C(C)(C)C)C2)cc1 (stereo not given),inactive: 60%
15,O=C(CC1N=C2c3ccccc3N=C(SCc3ccccc3F)N2C1=O)NCc1ccc2c(c1)OCO2 (stereo not given),inactive: 23.1%
16,C=CCN1C(=O)/C(=c2\sc3nc(=O)c(Cc4ccccc4Cl)nn3c2=O)c2ccccc21,inactive: 121%
17,COc1ccc(CNC(=O)C/C(C)=N/NC(=O)c2cnccn2)cc1,inconclusive: -47.2%
18,CC(CC(=O)N(C)CC(=O)Nc1ccc(N2CCOCC2)cc1)c1ccccc1 (stereo not given),inactive: -5.08%
19,O=C1c2[nH]nc(-c3ccc(Br)cc3)c2C(c2cccc(O)c2)N1c1ccc(Cl)cc1 (stereo not given),active: -105%

# Reference: PubChem BioAssay AID1259415 (National Center for Advancing Translational Sciences (NCATS), 2018)
